According to US20230158060A1:
These are yes or no findings as the source states them, for the method shown. For some of these results: In cells and extracts the contact can be indirect. Some results given as binding are weak or reduced against the parent protein; the word gives no strength.

Protein sequences, listed by entry. Tags and fused reporters are not part of them. Lines headed by an entry give the natural chain unless they say otherwise; changes in a name come on top. Chains listed by the source or under a name are the forms on record and can include a tag or linker. Residues count along the entry.
UniProt O00187: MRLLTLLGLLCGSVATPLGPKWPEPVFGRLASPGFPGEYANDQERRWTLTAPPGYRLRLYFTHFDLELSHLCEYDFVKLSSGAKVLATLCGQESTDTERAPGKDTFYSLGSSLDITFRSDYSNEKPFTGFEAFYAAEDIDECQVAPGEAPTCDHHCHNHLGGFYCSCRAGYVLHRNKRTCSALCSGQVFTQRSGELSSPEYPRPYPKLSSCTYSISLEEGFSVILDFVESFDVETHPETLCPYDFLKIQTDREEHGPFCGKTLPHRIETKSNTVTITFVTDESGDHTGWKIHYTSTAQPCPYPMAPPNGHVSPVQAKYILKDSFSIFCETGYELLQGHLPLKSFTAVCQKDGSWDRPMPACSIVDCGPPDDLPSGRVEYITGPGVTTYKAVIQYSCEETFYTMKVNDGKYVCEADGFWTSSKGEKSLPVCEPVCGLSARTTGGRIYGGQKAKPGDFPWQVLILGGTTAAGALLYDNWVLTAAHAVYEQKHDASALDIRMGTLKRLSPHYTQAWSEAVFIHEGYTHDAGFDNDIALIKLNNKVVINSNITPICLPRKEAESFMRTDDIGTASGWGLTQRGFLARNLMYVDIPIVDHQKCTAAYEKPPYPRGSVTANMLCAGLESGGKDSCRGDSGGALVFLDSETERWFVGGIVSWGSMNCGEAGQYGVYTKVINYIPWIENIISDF
Flag-tagged MASP-2 C-terminal CCP1-CCP2-SP region: residues 298-686 of O00187
UniProt P11226: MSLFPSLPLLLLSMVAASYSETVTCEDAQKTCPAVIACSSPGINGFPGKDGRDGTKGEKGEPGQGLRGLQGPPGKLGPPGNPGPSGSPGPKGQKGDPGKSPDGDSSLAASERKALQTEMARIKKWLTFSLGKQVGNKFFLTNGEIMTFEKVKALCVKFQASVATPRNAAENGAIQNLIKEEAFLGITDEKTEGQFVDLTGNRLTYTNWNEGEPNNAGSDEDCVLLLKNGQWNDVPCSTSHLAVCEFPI

How the values were obtained:
[1] = biological target: Flag-tagged full-length MASP-2 (UniProt O00187); experiment: co-immunoprecipitation, immunoblot (title of FIG. 1)
[2] = biological target: Flag-tagged full-length MASP-2 (UniProt O00187); experiment: summary of the study's co-immunoprecipitation results
[3] = biological target: Flag-tagged MASP-2 C-terminal CCP1-CCP2-SP region (UniProt O00187); experiment: co-immunoprecipitation on Flag-tagged MASP-2 region beads, immunoblot
[4] = biological target: mannan-binding lectin (MBL), purified (Homo sapiens (Human)) (UniProt P11226); experiment: ELISA, MBL on mannan-coated wells at 4° C., detection with anti-MASP-2 antibody

Substance	binding [1]	binding [2]	binding [3]	binding [4]
GFP-tagged SARS-CoV N protein, full length (from UniProt P59595 1-422)	binds	binds	binds	–
purified MASP-2 (from UniProt O00187 16-686) (enzyme)	–	–	–	binds
